Experimental findings from PubChem BioAssay AID1487 (National Center for Advancing Translational Sciences (NCATS), 2009) are described below.

A short description of this test: qHTS Assay for Modulators of Lamin A Splicing. The conditions noted are these: HeLa LMNA splicing GFP/RFP minigene ratio, 48 h. Summed up: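 S3 HeLa stable clones carrying a lamin A-EGFP splicing minigene plus DsRed2 were seeded at 600 cells/well in Opti-MEM with 2% FBS, pin-dosed and incubated 48 h at 37°C. Acumen cytometry (488 nm) gave the GFP/RFP total-intensity ratio.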
(In general: qHTS replaces the single test concentration by a dilution series.)

Where [1] appears, read: measured here: RFP viability control channel.
Where [2] appears, read: measured here: GFP splicing reporter channel.

Several values for one entry are separate records, joined by “and”; a condition that tells them apart may be missing. Identical values can stand only once. Some of the results follow. The main result of the screen is listed elsewhere. These columns were measured beside it and carry no call. Compounds called inactive in the main read-out are mostly missing here. Potencies come from curve fits of mixed quality, noted in brackets.

Broadly, the AC50 is the concentration at which the activity in the assay is half-maximal. With `COc1ccc(-c2nn(C)c3sc(C(=O)Nc4cccc(F)c4)cc23)cc1OC`, under setting [1], the AC50 is 10 µM [rising, single point]. As for `O=C(Nc1cc(Oc2ccc(Cl)cc2)cc([N+](=O)[O-])c1)c1ccco1`, the AC50 under setting [1] is 20 µM [rising, single point].

Consider `Cc1nnc(SCC(=O)Nc2cc(-c3cc(C)c(C)cc3C)nn2-c2ccccc2)s1`, for which the AC50 reads like this: under setting [2], 11.2 µM [rising, partial curve, poor fit]; under setting [1], 12.6 µM [rising, partial curve, poor fit]. As for `Cc1ccc2cc3cc(C(=O)Nc4ccc(F)cc4Cl)oc3nc2c1`, the AC50 reads like this: under setting [2], 12.6 µM [falling, partial curve]; under setting [1], 11.2 µM [falling, single point]. On to `CC(C)(C)NC(=O)C(c1cccs1)N(CC1CCCO1)C(=O)c1ccc(-c2ccccc2)[nH]1` (stereo not drawn), for which the AC50 under setting [1] was 20 µM [rising, partial curve, poor fit]. The same measure, in the same setting: in the case of `Cc1ccccc1NC(=O)c1ccc(CN2CCc3ccccc3C2)cc1` it was 17.8 µM [rising, partial curve, poor fit]. On the same count and under the same terms, the value for `Cc1cc(C)n2nc(C(=O)N(C)C(c3ccccc3)c3ccccc3)nc2n1` was 1.12 µM [falling, partial curve]. With `Cc1ccccc1OCC(=O)OCc1cc(=O)n2ccsc2n1`, the AC50 under setting [2] was 4.47 µM [falling, partial curve] and the AC50 under setting [1] was 4.47 µM [falling, single point].

Take `COc1ccccc1/C=C/CN1CCCC(CCC(=O)NCc2ccccc2F)C1` (stereo not drawn): the AC50 is, setting by setting: under setting [2], 12.6 µM [falling, partial curve, poor fit]; under setting [1], 12.6 µM [falling, partial curve, poor fit].

Take `Cc1cccc(NC(=S)Nc2cccc(C(F)(F)F)c2)n1`: under setting [1], the AC50 is 5.01 µM [rising, single point]. Regarding `CC(C)c1ccc(/C=C(\c2nc3ccccc3[nH]2)S(=O)(=O)c2ccccc2)cc1`, the AC50 under setting [2] is 35.5 µM [falling, single point]. In the case of `CC(C)CNC(=O)COc1ccc(Sc2ccc(OCC(=O)NCC(C)C)cc2)cc1`, the AC50 under setting [1] is 7.08 µM [rising, full curve]. For the molecule `CCN(CC)CCN(C(=O)c1ccco1)c1nc2ccc(Cl)cc2s1`, under setting [2], the AC50 is 3.98 µM [falling, full curve]. As to `Cc1ccc(/C=C/C2=NN(Cc3ccccc3Cl)C(=O)CC2)cc1`, the AC50 is 31.6 µM [rising, single point] under setting [2] and 31.6 µM [rising, single point] under setting [1]. Turning to `CCCc1cc(=O)[nH]c(SCC(=O)Nc2nc(-c3ccccc3)cs2)n1`, the AC50 under setting [2] was 35.5 µM [falling, partial curve, poor fit].

As to `Nc1ccn([C@H]2CC[C@@H](CO)O2)c(=O)n1`, the AC50 under setting [1] was 0.1 µM [rising, full curve, poor fit]. In the case of `Fc1cccc(Cl)c1Cn1nnc2c(NCc3ccccn3)ncnc21`, the AC50 under setting [1] is 31.6 µM [rising, single point]. On the same count and under the same terms, the value for `Cc1cccc(NC(=S)NC(NC(=O)OCc2ccccc2)C(Cl)(Cl)Cl)c1` (stereo not drawn) was 31.6 µM [rising, single point]. As to `Cn1c(SCC(=O)N2c3ccccc3CCc3ccccc32)nnc1-c1ccc(O)cc1`, under setting [2], the AC50 was 0.631 µM [falling, partial curve, poor fit]. `c1cncc(-c2noc(CC3CCCCC3)n2)c1`: the AC50 under setting [2] is 5.62 µM [falling, single point]. On to `O=C(NN1CCOCC1)c1cc(-c2ccc(Br)cc2)nc2ccccc12`, for which the AC50 is 5.01 µM [rising, partial curve, poor fit] under setting [2] and 8.91 µM [rising, partial curve] under setting [1]. Turning to `Cc1c(C(=O)NNC(=S)Nc2cccc(Cl)c2)nnn1-c1ccccc1`, the AC50 by setting is: under setting [2], 14.1 µM [rising, single point]; under setting [1], 15.8 µM [rising, single point]. Regarding `CCC(CC)C(=O)Nc1cccc(C(=O)NC(C)(C)C)c1`, the AC50 was 0.01 µM [falling, full curve, poor fit] under setting [2] and 0.0112 µM [falling, full curve, poor fit] under setting [1]. In the case of `CCOc1ccc(C(=O)N/N=C(\c2ccccc2)c2ccccn2)cc1`, the AC50 under setting [1] was 28.2 µM [rising, single point]. For the molecule `Cc1cccc(C(=O)NNC2=C(C(=O)C(F)(F)F)CCC2)c1O`, under setting [1], the AC50 is 22.4 µM [rising, single point].

For `Cc1cc(/C=C(\C#N)C(=O)Nc2ccc(Cl)cc2)c(C)n1-c1ccc(N2CCOCC2)c([N+](=O)[O-])c1`, under setting [1], the AC50 was 3.16 µM [rising, full curve]. Turning to `COC(=O)/C(=C/c1ccc2c(c1)c1ccccc1n2C)NC(=O)c1ccccc1`, under setting [1], the AC50 is 35.5 µM [rising, single point].

`COc1ccc(-c2cn(-c3ccccc3)c3[n+]2CCS3)cc1`: the AC50 reads like this: under setting [2], 2.82 µM [falling, single point] and 3.55 µM [rising, partial curve]; under setting [1], 8.91 µM [rising, partial curve]. In the case of `COc1ccccc1-c1nc(-c2ccc(Br)o2)no1`, the AC50 under setting [2] is 28.2 µM [falling, partial curve, poor fit] and the AC50 under setting [1] is 10 µM [falling, partial curve].

`O=C(CSc1nnc(-c2cnccn2)n1Cc1ccco1)c1ccc(Cl)cc1`: the AC50 under setting [1] was 12.6 µM [rising, single point]. On to `CCN(CC)CCCNC(=O)c1cc2nc3c(c(C(F)(F)F)n2n1)CCc1ccccc1-3`, for which the AC50 under setting [2] was 0.447 µM [rising, partial curve, poor fit]. On to `OC[C@H](S)CS`, for which the AC50 was 35.5 µM [falling, single point] under setting [2] and 35.5 µM [falling, single point] under setting [1]. On to `CS(=O)(=O)N(CC(=O)NCCC1=CCCCC1)c1cccc([N+](=O)[O-])c1`, for which the AC50 under setting [2] was 15.8 µM [falling, single point] and the AC50 under setting [1] was 0.0501 µM [falling, full curve, poor fit].

On to `CN(Cc1nc(-c2cccc(Cl)c2)no1)C1CCOCC1`, for which the AC50 under setting [1] is 35.5 µM [falling, single point]. As to `S=c1[nH]nc(CSCCOc2ccc(Cl)cc2Cl)o1`, the AC50 under setting [2] was 14.1 µM [falling, single point] and the half-maximal activity concentration (AC50) under setting [1] is 5.62 µM [falling, partial curve, poor fit].
